Results from patent US20150237857A1, “ANTIBACTERIAL INHIBITORS” (MCMASTER UNIVERSITY, priority 2012, published 2015).
At least one structure is not confirmed: it was looked up by name or label, or the drawing left a doubt.

Test system: E. coli MG1655
Assay: Metabolic suppression profiling (ChemArray)
Assay type: cell-based
Conditions: 4× MIC in M9 minimal media

SMILES: CO[C@H]1/C=C/O[C@@]2(C)Oc3c(C)c(O)c4c(O)c(c(/C=N/N5CCN(C)CC5)c(O)c4c3C2=O)NC(=O)/C(C)=C\C=C\[C@H](C)[C@H](O)[C@@H](C)[C@@H](O)[C@@H](C)[C@H](OC(C)=O)[C@@H]1C [rifampicin, reference compound]
- metabolic suppression profile: metabolites that suppress growth inhibitory activity: not altered in the presence of supplements
